From PubChem BioAssay AID260 (DTP/NCI, 2004)
The list does not hold the whole screen: its compounds were picked by chemical class. Other doses and runs of a compound may be missing. T/C is the treated group as % of the vehicle group. Some entries give survivors of the animals treated and no T/C: the source holds a T/C of zero for them, seemingly a mark for toxic or unscored doses. Survivors were counted at the toxicity check, usually on the fifth day, unless a day is given; later deaths do not show. Schedules are NCI's codes, read here as Q, the interval in days (D) or hours (H), X, the number of doses. Where survival is the endpoint, the PubChem record calls one and a half times the control and up active, and a quarter to a half above the control has no call in these data; cut-offs in other NCI protocols can differ. Some T/C values are followed by the survivors on the day toxicity was checked, most often the fifth; without a count or a note in brackets, all were alive then.

Tested on: CD2F1 mice, intracerebral L1210 leukemia, survival T/C
Assay: NCI In Vivo Anticancer Drug Screen. Data for tumor model L1210 Leukemia (intracerebral) in CD2F1 (CDF1) mice
Conditions: higher T/C = longer survival
Description: The antitumor activity of compounds was measured in mice bearing transplantable tumors. Survival or tumor size were measured and the results are expressed as the measurement made in the treated group (T) divided by the measurement made in the vehicle treated control group (C). The tumor model used in this assay is L1210 Leukemia (intracerebral) in CD2F1 (CDF1) mice

[1] = T/C endpoint: median survival time, dose: 32.0 mg/kg/injection, schedule: Q01DX005 (ip), vehicle: saline with Tween-80
[2] = T/C endpoint: median survival time, dose: 64.0 mg/kg/injection, schedule: Q01DX005 (ip), vehicle: saline with Tween-80
[3] = T/C endpoint: median survival time, dose: 128.0 mg/kg/injection, schedule: Q01DX005 (ip), vehicle: saline with Tween-80
[4] = T/C endpoint: median survival time, dose: 256.0 mg/kg/injection, schedule: Q01DX005 (ip), vehicle: saline with Tween-80

| SMILES | T/C [1] | T/C [2] | T/C [3] | T/C [4] | survivor count (T/C endpoint: median survival time, dose: 512.0 mg/kg/injection, schedule: Q01DX005 (ip), vehicle: saline with Tween-80) | T/C (T/C endpoint: mean survival time, dose: 50.0 mg/kg/injection, schedule: Q01DX001 (ip), vehicle: water) | T/C (T/C endpoint: mean survival time, dose: 100.0 mg/kg/injection, schedule: Q01DX001 (ip), vehicle: water) | T/C (T/C endpoint: mean survival time, dose: 200.0 mg/kg/injection, schedule: Q01DX001 (ip), vehicle: water) | survivor count (T/C endpoint: mean survival time, dose: 400.0 mg/kg/injection, schedule: Q01DX001 (ip), vehicle: water) | T/C (T/C endpoint: median survival time, dose: 400.0 mg/kg/injection, schedule: Q01DX005 (ip), vehicle: saline with Tween-80) |
| --- | --- | --- | --- | --- | --- | --- | --- | --- | --- | --- |
| NC(=O)c1[nH]cnc1/N=N\N(CCCl)CCCl | 127 % of control | 130 % of control | 140 % of control | 134 % of control | 2 of 6 | – | – | – | – | – |
| O=P1(N(CCCl)CCCl)OCCCN1CCCl (centres undefined) | – | – | – | – | – | 129 % of control | 133 % of control | 143 % of control [7 of 8 alive] | 2 of 8 | – |
| CN(CCCl)/N=N/c1nc[nH]c1C(N)=O | 110 % of control | 124 % of control | 136 % of control | 112 % of control | – | – | – | – | – | 87 % of control |
